Numbering of substitutions follows the chain as printed. These are yes or no findings as the source states them, for the method shown. For some of these results: In cells and extracts the contact can be indirect. Some binding calls cover weakened binding; strength is not graded here. For some of these results: Tags and fused reporters may be left off the sequences shown.
Columns and labels:
[1] = target: T1, VDAC2^A172C (single point mutant, HA-tagged) (mouse) (UniProt Q60930); experiment: co-IP; immunoprecipitation by the HA tag on VDAC2 from solubilised mitochondria of VDAC2-deficient MEFs that express HA-VDAC2 A172 mutants
T1 sequence: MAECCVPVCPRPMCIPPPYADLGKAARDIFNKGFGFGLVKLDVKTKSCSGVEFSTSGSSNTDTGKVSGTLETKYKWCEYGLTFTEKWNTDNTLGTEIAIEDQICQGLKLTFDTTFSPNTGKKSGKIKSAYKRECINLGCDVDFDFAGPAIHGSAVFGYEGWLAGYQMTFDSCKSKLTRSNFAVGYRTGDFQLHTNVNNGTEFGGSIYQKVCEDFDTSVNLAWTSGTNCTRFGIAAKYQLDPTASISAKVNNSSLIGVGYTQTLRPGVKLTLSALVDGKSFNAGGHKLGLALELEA

HA-VDAC2^A172I (mouse) [2] = target: T2, HA-VDAC2^A172I (mouse) (UniProt Q60930); experiment: as above
T2 sequence: T1 sequence with C172I

HA-VDAC2^A172L (mouse) [3] = target: T3, HA-VDAC2^A172L (mouse) (UniProt Q60930); experiment: as above
T3 sequence: T1 sequence with C172L

[4] = target: T1, VDAC2^A172C (single point mutant, HA-tagged) (mouse); experiment: native gel or EMSA; BN-PAGE of digitonin-solubilised heavy membrane fractions of MEFs that express VDAC2 variants; immunoblot
[5] = target: T4, wild-type VDAC2 (HA-VDAC2) (mouse) (UniProt Q60930); experiment: as above
T4 sequence: T1 sequence with C172A

HA-VDAC2^A172I (mouse) [6] = target: T2, HA-VDAC2^A172I (mouse); experiment: as above
HA-VDAC2^A172L (mouse) [7] = target: T3, HA-VDAC2^A172L (mouse); experiment: as above
[8] = target: T1, VDAC2^A172C (single point mutant, HA-tagged) (mouse); experiment: native gel or EMSA; BN-PAGE of heavy membrane fractions of Vdac2-/- MEFs that express VDAC2 variants, solubilised with 1% digitonin after treatment with 10 nM tBID
[9] = target: T4, wild-type VDAC2 (HA-VDAC2) (mouse); experiment: as above
[10] = target: BAK (endogenous, MEFs) (mouse (endogenous in MEFs)) (UniProt O08734); experiment: as above

Measured: binding

B1: BAK (endogenous, MEFs) (protein, UniProt O08734 1-209)
chain: MASGQGPGPPKVGCDESPSPSEQQVAQDTEEVFRSYVFYLHQQEQETQGAAAPANPEMDNLPLEPNSILGQVGRQLALIGDDINRRYDTEFQNLLEQLQPTAGNAYELFTKIASSLFKSGISWGRVVALLGFGYRLALYVYQRGLTGFLGQVTCFLADIILHHYIARWIAQRGGWVAALNFRRDPILTVMVIFGVVLLGQFVVHRFFRS
binds: all assays above

— publication PMC11098506
